Results on 80 compounds are retold here after paper PMC12040169 (PLOS Biology, 2025).

Structures are written as SMILES. Some of the results follow.

The subject of this assay is T1, CTL2-GFP (C. trachomatis L2/434/Bu, GFP-expressing).
T1 construct: L2/434/Bu, GFP-expressing
Details: species or system HeLa; Intracellular C. trachomatis growth in HeLa cells, bulk GFP fluorescence relative to DMSO. The following applies: bulk GFP, single well; 28.5 h, 10 µM; inhibitor.
Consider `Cc1ccc(S(=O)(=O)NC(=O)N(Cc2ccccc2)Cc2ccco2)cc1` [CBK269524], for which the “% of control remaining” value turned out to be 124.323%.

`Cc1cccc(-c2ccc(CC3(C(=O)NC(C)C)CCN(C(=O)C(C)(C)C)CC3)cc2)c1` [CBK285758]: the “% of control remaining” value stood at 137.172%.

Turning to `CN(CC(=O)NC1CCCCC1)S(=O)(=O)c1ccc(F)cc1` [CBK091832], the “% of control remaining” value is given as 108.326%.

`CC(C)Cc1csc(C2CN3CCCC3CO2)n1` (centres unmarked) [CBK304807]: the “% of control remaining” value turned out to be 102.686%.

Regarding `O=C(OCn1nnc2ccccc2c1=O)c1cccc([N+](=O)[O-])c1` [CBK264887], the “% of control remaining” value worked out at 91.9315%.

As for `O=C(Nc1cccc2cc[nH]c12)c1cc(F)c(Cl)cc1F` [CBK160080], the “% of control remaining” value is 123.001%.

As to `CC(=O)c1ccc(NC(=O)c2cccc(Cl)c2)cc1` [CBK033939], the “% of control remaining” value came to 130.094%.

For the compound `O=C(Nn1cnnc1)c1ccc(C(=O)Nn2cnnc2)cc1` [CBK261111], the “% of control remaining” value is listed as 108.102%.

On to `O=C(Cn1c(C2CCCNC2)cc2cccnc21)NC1CCCC1` (centres unmarked) [CBK285059], for which the “% of control remaining” value turned out to be 101.291%.

As to `CC(=O)Nc1cccc(-n2cnnc2SCC2CCCCC2)c1` [CBK305054], the “% of control remaining” value worked out at 85.9325%.

On to `COc1ccccc1N1C(=O)[C@H]2N=C(C(=O)c3cnccn3)N[C@H]2C1=O` [CBK021406], for which the “% of control remaining” value is reported as 118.443%.

On to `CC1=C(C(=O)Nc2ccccc2)C(c2cccs2)C(C#N)=C(SCC(=O)c2ccc(Br)cc2)N1` (centres unmarked) [CBK261384], for which the “% of control remaining” value is on record as 96.5691%.

With `C1=C(CNC(Cc2cccs2)c2nccs2)COCC1` (centres unmarked) [CBK284682], the “% of control remaining” value is listed as 72.0243%.

Consider `CCOc1cccc(-c2cncc(NC(C)CCCC(C)(C)O)n2)c1` (centres unmarked) [CBK066020], for which the “% of control remaining” value was found to be 187.219%.

Take `Cc1cccc(=O)n1CCCNc1cc(C2CCOC2)nc(N)n1` (centres unmarked) [CBK307030]: the “% of control remaining” value is given as 150.026%.

As for `Cc1ccnc(NCC2CCN(CC(=O)NC3(C#N)CCCC3)C2)c1` (centres unmarked) [CBK306128], the “% of control remaining” value is 127.24%.

Regarding `Cn1nc(C2CCCC2)cc1[C@H]1CN2CC[C@H]1C[C@@H]2CNS(=O)(=O)c1ccccc1` [CBK288741], the “% of control remaining” value came out at 120.148%.

Regarding `Cc1nc(CCNC(=O)N2CCC(Oc3cccnc3)CC2)sc1Cl` [CBK306636], the “% of control remaining” value is on record as 130.756%.

Consider `O=C(NCc1ccccc1)c1ccc(N2C(=O)CSC23C(=O)Nc2ccccc23)cc1` (centres unmarked) [CBK093476], for which the “% of control remaining” value was 95.9166%.

Turning to `O=C1CC2(CCN(Cc3ccc(C(F)(F)F)cc3)CC2)CN1` [CBK283359], the “% of control remaining” value is reported as 121.762%.

As to `Cc1c(F)cccc1CN(CC(C)(C)CN)C(=O)Nc1ccc2c(c1)OCO2` [CBK002486C], the “% of control remaining” value is given as 124.91%.

With `O=C(CC1CCN(Cc2ccccn2)CC1)Nc1ccc(OC2CCCC2)cc1` [CBK285960], the “% of control remaining” value is 71.6802%.

For the compound `CCn1c(=N)c(C(=O)NCCOC)cc2c(=O)n3ccccc3nc21` [CBK287605], the “% of control remaining” value is listed as 116.494%.

`C=CCn1c(SC(C)C(=O)O)nnc1-c1ccc(OC)cc1` (centres unmarked) [CBK268958]: the “% of control remaining” value is 153.778%.

`O=C(Nc1ccc([C@@H](O)[C@H]2COCC(=O)N2Cc2ccccc2F)cc1)c1cnccn1` [CBK289060]: the “% of control remaining” value is given as 158.514%.

`CC1CN(Cc2nc3c(c(=O)[nH]c(=O)n3C)n2Cc2cccc(Cl)c2)CC(C)O1` (centres unmarked) [CBK269450]: the “% of control remaining” value amounted to 66.8111%.

Turning to `Cc1ccc(OCc2ccccc2)c(Br)c1` [CBK002833], the “% of control remaining” value stood at 122.638%.

On to `c1csc(CN2CCNCC2)c1` [CBK027324], for which the “% of control remaining” value is recorded as 110.629%.

Turning to `CS(=O)(=O)N1CCc2cc(C(=O)Cn3nc(C(=O)O)c4ccccc4c3=O)ccc21` [CBK297000], the “% of control remaining” value is 169.332%.

For `N#CC(c1ccc(Br)cc1)n1ccnc1` (centres unmarked) [CBK009985], the “% of control remaining” value is reported as 126.988%.

As for `COC(=O)c1ccc(NC(=O)CCN2C(=O)c3cccc([N+](=O)[O-])c3C2=O)cc1` [CBK263137], the “% of control remaining” value worked out at 90.7614%.

In the case of `CC(=O)C12CCCCC1CC1C3CC(C)C4(O)CC(O)CCC4(C)C3CCC12C` (centres unmarked) [CBK261479], the “% of control remaining” value came to 103.999%.

Regarding `O=S(=O)(c1sccc1F)N1CCOCC1c1cccc(F)c1` (centres unmarked) [CBK304730], the “% of control remaining” value came to 132.957%.

As for `Cc1cc(C[C@@H]2COC[C@H]2NCc2ccc(C(F)(F)F)cc2)on1` [CBK285463], the “% of control remaining” value turned out to be 96.3008%.

Turning to `CC(=O)N1N=C(COc2ccc3c(c2)OCO3)OC1c1ccc(C)cc1` (centres unmarked) [CBK294397], the “% of control remaining” value turned out to be 166.389%.

As to `O=C(O)C1=CC(c2ccccc2)=NS(=O)(=O)N1` [CBK286828], the “% of control remaining” value was determined as 85.455%.

For the compound `O=C1Cc2cc3ccccc3cc2C2(CCN(C(=O)C3CCC3C(=O)O)CC2)N1` (centres unmarked) [CBK047252], the “% of control remaining” value is reported as 111.288%.

As for `Cc1nc2ccc(C(=O)NCCN3CCc4ccccc43)cc2[nH]1` [CBK283280], the “% of control remaining” value amounted to 124.215%.

On to `OC1(c2nnsc2-c2ccccc2)CCCC1` [CBK007956], for which the “% of control remaining” value was 103.447%.

Consider `COc1ccccc1CNC(=O)c1ccc(=O)[nH]c1` [CBK288133], for which the “% of control remaining” value worked out at 111.562%.

Regarding `Cc1cc(C)n(CC(=O)NCC(c2cccs2)N2CCOCC2)n1` (centres unmarked) [CBK305620], the “% of control remaining” value was 132.112%.

`O=C(NC1CCCCC1)[C@H]1CN2CCC1C[C@@H]2Cn1cc(CO)nn1` (some centres unmarked) [CBK289086]: the “% of control remaining” value is 127.417%.

With `O=C(NCCSCc1ccco1)C1CCC1` [CBK057516], the “% of control remaining” value stood at 100.328%.

With `CCN(CC)CCNC(=O)c1ccc(C(=O)O)c(C)n1` [CBK304248], the “% of control remaining” value was found to be 107.857%.

For `COc1ccc(OCCN(C)c2cnn(-c3ccc(C(=O)O)cc3)c(=O)c2Cl)cc1` [CBK296627], the “% of control remaining” value is 136.8%.

For the compound `O=C(c1ccco1)N1C2CCC1CC(O)(c1cccnc1F)C2` (centres unmarked) [CBK284417], the “% of control remaining” value stood at 118.15%.

For the compound `Cc1[nH]c(=O)[nH]c1C(=O)CCCCC(=O)O` [CBK263197], the “% of control remaining” value was 116.736%.

Take `Cc1cc(=O)c2ccccc2n1CC(=O)N1CCNC(=O)C1C` (centres unmarked) [CBK306511]: the “% of control remaining” value is 130.686%.

On to `Cc1csc(C(Cc2cccs2)NCC2CCOC2)n1` (centres unmarked) [CBK285051], for which the “% of control remaining” value worked out at 106.484%.

Take `NC(=O)CN1CC2(CCN(CC(=O)Nc3ccc(F)c(Cl)c3)CC2)c2ccccc21` [CBK126790]: the “% of control remaining” value is on record as 99.8449%.

Take `O=C(CCC(=O)c1ccccc1)Nc1ccccc1N1CCNCC1` [CBK028284T]: the “% of control remaining” value stood at 115.233%.

As for `CCOC(=O)c1sc2ccc(NC(C)=O)cc2c1C` [CBK021052], the “% of control remaining” value is 148.525%.

As for `O=C(Nc1ccccc1-c1nc2ccccc2[nH]1)c1ccc2c(c1)OCCO2` [CBK293924], the “% of control remaining” value is 171.459%.

As for `O=C(Nc1cccc(C(F)(F)F)c1)N1CCN(CCCCc2ccc(F)cc2)CC1` [CBK013363C], the “% of control remaining” value came out at 123.437%.

Turning to `CCOc1ccc(-c2c(C3CC3)n[nH]c2N)cc1OCC` [CBK288177], the “% of control remaining” value is on record as 99.0662%.

As to `Cc1nc(-c2ccccc2)c(CC(=O)NC2CCCOC2)s1` (centres unmarked) [CBK282586], the “% of control remaining” value came to 86.2229%.

For `O=C(NCC1CCCO1)c1ccc(NC(=O)C2CC=CCC2C(=O)O)cc1` (centres unmarked) [CBK266335], the “% of control remaining” value was 221.275%.

`c1csc(CCN2CCC3(C2)NCCc2c3[nH]c3ccccc23)c1` (centres unmarked) [CBK040196]: the “% of control remaining” value is recorded as 135.436%.

Regarding `O=C(O)C(Cc1ccccc1)N1C(=O)/C(=C/C(Cl)=C/c2ccc([N+](=O)[O-])cc2)SC1=S` (centres unmarked) [CBK263523], the “% of control remaining” value came to 115.184%.

`O=C(Cn1cccn1)NC(Cc1cccs1)c1nccs1` (centres unmarked) [CBK285136]: the “% of control remaining” value is recorded as 111.779%.

Turning to `Cc1c(C(=O)N2CCCCC2CN2CCOCC2)[nH]c2c(F)cccc12` (centres unmarked) [CBK306751], the “% of control remaining” value amounted to 93.969%.

Consider `Clc1ccc(-c2cc(NC3CCCCC3)ncn2)cc1` [CBK090902], for which the “% of control remaining” value is on record as 176.458%.

On to `COc1cc(/C=C2/S/C(=N\c3ccccc3)NC2=O)ccc1OCc1ccccc1[N+](=O)[O-]` [CBK262165], for which the “% of control remaining” value was 100%.

As to `CC(=O)Nc1cccc(Oc2nccnc2-c2ccc(C)cc2C)c1` [CBK106986], the “% of control remaining” value came to 73.3448%.

Turning to `O=C(NC1CCCC1)c1ccc(Cl)cc1Cl` [CBK002108], the “% of control remaining” value stood at 118.611%.

With `Oc1ccc(C2N=C(c3ccccc3)N=C(c3ccccc3)N2)cc1` (centres unmarked) [CBK018755], the “% of control remaining” value turned out to be 121.107%.

With `CC(=O)Nc1ccc(NC(=O)c2cnc(-c3cccc(C)c3)c(-c3ccncc3)c2)cc1C(F)(F)F` [CBK036660], the “% of control remaining” value is listed as 162.74%.

On to `COc1ccc(-c2cc3ccc(OC(C)C(=O)O)cc3oc2=O)cc1` (centres unmarked) [CBK267947], for which the “% of control remaining” value worked out at 99.3237%.

Turning to `O=c1[nH]c(=O)c2cc(S(=O)(=O)NC(c3ccccc3)c3ccccc3)ccc2[nH]1` [CBK286375], the “% of control remaining” value came out at 102.827%.

Turning to `Cc1nc[nH]c1CN(Cc1cccc(F)c1)CC1CCCO1` (centres unmarked) [CBK282525], the “% of control remaining” value came to 136.698%.

As for `CC(=O)NCC1CCC(C(NC(=O)C2CC2)c2ccccn2)CC1` (centres unmarked) [CBK283000], the “% of control remaining” value was 112.865%.

Consider `CCCn1cc(NC(=O)NC(C)(CC)CO)ccc1=O` (centres unmarked) [CBK304864], for which the “% of control remaining” value worked out at 121.549%.

With `Fc1ccc(COc2ccc3ccccc3c2CNc2nn[nH]n2)cc1` [CBK268211], the “% of control remaining” value came to 117.89%.

With `CC(C)n1cc(C(=O)N2CCC(c3cc4ncccc4[nH]3)CC2)cn1` [CBK283392], the “% of control remaining” value turned out to be 119.618%.

Regarding `CSc1nc(N)cc(N2CCN(C(=O)OC(C)(C)C)CC2)n1` [CBK003458], the “% of control remaining” value amounted to 95.0425%.

As for `NS(=O)(=O)c1ccc(NC(=S)NNC(=O)C2c3ccccc3Oc3ccccc32)cc1` [CBK267024], the “% of control remaining” value is recorded as 129.676%.

`Cc1ccc(C(=O)NCCN2CCOCC2)c(N2CCOCC2)n1` [CBK106201]: the “% of control remaining” value is 165%.

As for `Cc1cc(C(=O)NC2(C#N)CCSCC2)n(C)n1` [CBK306386], the “% of control remaining” value was found to be 120.596%.

Turning to `COc1cc2c(cc1OC)CN(C(=O)Cc1ccccc1)CC2` [CBK122751], the “% of control remaining” value is recorded as 119.366%.

`CN(C)CCC1OC(=O)N(c2ccccc2)C1=O` (centres unmarked) [CBK010134C]: the “% of control remaining” value is recorded as 124.545%.
